No constants are given. Whether binding was seen depends on the method and setting. Binding seen in cells or lysates may run through a third protein. Some entries that bind do so weakly or less than the wild type. For some assays here: Sequences can lack the tags named with a protein.
Assays:
[1] = molecular target: T1, ERFAD-HA (UniProt Q8IWF2); test: co-IP; IP by the tag (anti-HA from A11 lysates; anti-myc from HEK293 transiently expressing myc-ERp90), Western blotting with anti-ERp90 or anti-ERFAD
T1 sequence: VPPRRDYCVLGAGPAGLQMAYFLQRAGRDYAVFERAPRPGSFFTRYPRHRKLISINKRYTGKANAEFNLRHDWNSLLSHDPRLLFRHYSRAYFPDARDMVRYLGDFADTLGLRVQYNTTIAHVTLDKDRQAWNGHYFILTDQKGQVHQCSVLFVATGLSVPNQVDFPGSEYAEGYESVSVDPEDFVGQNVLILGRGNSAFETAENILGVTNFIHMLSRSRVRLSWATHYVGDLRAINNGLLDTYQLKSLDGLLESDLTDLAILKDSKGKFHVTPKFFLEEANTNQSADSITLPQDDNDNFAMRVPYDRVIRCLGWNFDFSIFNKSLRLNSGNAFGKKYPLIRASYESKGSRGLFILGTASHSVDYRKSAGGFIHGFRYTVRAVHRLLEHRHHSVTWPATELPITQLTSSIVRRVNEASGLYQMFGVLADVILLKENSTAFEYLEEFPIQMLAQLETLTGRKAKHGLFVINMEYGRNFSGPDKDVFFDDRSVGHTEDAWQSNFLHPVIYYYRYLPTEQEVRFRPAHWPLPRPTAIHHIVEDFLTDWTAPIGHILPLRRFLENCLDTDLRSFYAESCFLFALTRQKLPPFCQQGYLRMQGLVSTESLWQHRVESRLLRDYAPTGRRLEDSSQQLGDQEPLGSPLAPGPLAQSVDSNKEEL

[2] = molecular target: T2, ERFAD (endogenous) (human (endogenous in HEK293)) (UniProt Q8IWF2); test: co-IP; [35S] pulse-labelled HEK293 cells, IP with ERFAD antiserum (pre-immune serum as control), re-IP with anti-ERFAD or anti-ERp90, autoradiography
T2 sequence: T1 sequence

[3] = molecular target: T1, ERFAD-HA; test: co-IP; [35S]-labelled A11 cells, Triton X-100 lysates, IP with anti-HA, reducing SDS-PAGE and autoradiography; re-IP with anti-HA, anti-SEL1L or anti-ERp90; cells also pretreated under reducing conditions or with diamide
[4] = molecular target: T3, myc-ERp90 (human) (UniProt Q9P2K2); test: co-IP; IP by the tag (anti-HA from A11 lysates; anti-myc from HEK293 transiently expressing myc-ERp90), Western blotting with anti-ERp90 or anti-ERFAD
T3 sequence: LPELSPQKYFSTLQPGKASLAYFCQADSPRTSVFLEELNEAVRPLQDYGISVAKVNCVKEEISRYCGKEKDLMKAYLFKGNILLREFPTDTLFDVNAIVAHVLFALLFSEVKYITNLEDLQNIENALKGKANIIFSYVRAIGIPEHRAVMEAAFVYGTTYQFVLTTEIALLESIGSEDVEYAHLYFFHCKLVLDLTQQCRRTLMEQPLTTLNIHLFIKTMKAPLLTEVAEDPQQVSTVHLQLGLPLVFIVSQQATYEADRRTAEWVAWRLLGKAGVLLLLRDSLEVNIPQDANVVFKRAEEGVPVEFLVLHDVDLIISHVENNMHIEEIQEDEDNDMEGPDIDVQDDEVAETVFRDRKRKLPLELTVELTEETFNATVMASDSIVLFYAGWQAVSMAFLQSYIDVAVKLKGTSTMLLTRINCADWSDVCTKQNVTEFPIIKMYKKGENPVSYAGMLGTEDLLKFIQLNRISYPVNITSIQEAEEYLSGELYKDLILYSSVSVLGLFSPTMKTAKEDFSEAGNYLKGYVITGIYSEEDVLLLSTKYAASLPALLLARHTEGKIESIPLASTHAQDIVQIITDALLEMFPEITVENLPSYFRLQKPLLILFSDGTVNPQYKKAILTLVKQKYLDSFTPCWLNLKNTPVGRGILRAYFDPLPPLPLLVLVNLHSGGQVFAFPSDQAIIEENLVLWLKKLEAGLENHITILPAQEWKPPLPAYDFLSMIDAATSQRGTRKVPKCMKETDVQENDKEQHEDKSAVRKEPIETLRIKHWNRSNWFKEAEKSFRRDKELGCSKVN

[5] = molecular target: T4, ERFAD-His-FLAG (UniProt Q8IWF2); test: co-IP; [35S]-labelled 3B2B-myc-ERp90 cells, native anti-FLAG IP, elution with FLAG peptide under native conditions, second native IP with anti-myc
T4 sequence: T1 sequence

B1: ERp90 (endogenous) (protein, UniProt Q9P2K2 28-825)
chain: T3 sequence
modifications: N-glycans (EndoH-sensitive)
[1]
  binding: binds
[2]
  binding: binds
[3]
  binding: binds

B2: ERFAD (endogenous) (protein, UniProt Q8IWF2 27-684)
chain: T1 sequence
[4]
  binding: binds

B3: myc-ERp90 (protein, UniProt Q9P2K2 28-825)
chain: T3 sequence
[5]
  binding: binds

Reference: article PMC3040216
